# Data taken from the supplement of paper PMC10849652.
# Chains of the proteins cited; added tags and fusions are not shown. Lines headed by an entry give the natural chain unless they say otherwise; changes in a name come on top.
# UniProt Q6ZSS7: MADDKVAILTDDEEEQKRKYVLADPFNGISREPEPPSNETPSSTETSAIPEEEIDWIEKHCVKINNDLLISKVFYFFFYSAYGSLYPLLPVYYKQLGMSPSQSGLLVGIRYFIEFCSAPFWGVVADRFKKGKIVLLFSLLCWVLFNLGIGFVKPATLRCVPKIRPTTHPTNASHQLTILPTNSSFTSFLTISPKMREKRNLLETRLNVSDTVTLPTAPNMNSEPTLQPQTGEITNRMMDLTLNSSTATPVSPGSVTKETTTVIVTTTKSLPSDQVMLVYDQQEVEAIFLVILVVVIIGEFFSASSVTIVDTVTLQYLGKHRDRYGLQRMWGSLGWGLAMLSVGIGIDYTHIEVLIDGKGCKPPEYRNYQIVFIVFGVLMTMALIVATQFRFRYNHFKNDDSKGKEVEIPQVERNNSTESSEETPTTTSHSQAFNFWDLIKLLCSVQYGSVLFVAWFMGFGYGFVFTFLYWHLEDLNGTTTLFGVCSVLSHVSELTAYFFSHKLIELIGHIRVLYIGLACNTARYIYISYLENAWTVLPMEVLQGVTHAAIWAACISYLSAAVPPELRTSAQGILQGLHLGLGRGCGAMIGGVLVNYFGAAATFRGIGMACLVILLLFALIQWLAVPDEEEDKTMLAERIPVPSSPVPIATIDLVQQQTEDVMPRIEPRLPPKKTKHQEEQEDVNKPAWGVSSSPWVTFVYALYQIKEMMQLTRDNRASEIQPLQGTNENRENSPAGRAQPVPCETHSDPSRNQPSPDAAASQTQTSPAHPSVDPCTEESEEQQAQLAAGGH
# UniProt Q6P2C8: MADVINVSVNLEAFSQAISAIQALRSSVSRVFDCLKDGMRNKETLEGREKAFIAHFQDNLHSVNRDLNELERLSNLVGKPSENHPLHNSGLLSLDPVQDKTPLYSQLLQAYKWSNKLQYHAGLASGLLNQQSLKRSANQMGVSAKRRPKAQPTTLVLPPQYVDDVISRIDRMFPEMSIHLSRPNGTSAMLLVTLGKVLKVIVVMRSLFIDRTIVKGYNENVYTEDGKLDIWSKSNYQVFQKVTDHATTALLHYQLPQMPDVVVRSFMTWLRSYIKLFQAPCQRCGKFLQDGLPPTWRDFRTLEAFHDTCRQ
# UniProt Q8TCB7: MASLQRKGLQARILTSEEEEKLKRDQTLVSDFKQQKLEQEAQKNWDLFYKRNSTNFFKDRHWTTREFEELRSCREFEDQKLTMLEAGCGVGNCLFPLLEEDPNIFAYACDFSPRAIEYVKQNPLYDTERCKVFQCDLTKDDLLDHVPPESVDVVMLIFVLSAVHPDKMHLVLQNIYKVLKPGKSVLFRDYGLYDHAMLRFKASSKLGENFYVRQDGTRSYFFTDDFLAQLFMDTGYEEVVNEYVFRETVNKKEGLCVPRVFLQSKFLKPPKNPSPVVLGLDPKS
# UniProt O43934: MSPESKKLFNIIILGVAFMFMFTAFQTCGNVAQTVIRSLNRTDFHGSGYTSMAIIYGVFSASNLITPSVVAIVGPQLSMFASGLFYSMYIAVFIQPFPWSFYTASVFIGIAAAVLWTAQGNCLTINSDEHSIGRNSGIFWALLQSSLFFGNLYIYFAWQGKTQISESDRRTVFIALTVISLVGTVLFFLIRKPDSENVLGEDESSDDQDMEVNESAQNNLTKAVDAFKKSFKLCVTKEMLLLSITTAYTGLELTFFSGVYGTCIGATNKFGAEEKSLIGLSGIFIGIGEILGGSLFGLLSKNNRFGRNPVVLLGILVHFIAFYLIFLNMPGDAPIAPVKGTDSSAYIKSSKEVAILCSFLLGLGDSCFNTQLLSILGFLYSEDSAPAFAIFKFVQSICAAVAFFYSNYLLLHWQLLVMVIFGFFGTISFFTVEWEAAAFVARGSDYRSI
# UniProt O75586: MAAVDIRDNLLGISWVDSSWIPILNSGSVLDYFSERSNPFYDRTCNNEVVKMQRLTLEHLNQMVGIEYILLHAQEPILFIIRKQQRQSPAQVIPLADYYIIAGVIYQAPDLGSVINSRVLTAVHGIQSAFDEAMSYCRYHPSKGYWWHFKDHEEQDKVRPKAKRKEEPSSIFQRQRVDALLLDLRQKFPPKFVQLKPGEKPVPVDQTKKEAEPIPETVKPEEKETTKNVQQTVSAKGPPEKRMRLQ
# UniProt Q6NUT3: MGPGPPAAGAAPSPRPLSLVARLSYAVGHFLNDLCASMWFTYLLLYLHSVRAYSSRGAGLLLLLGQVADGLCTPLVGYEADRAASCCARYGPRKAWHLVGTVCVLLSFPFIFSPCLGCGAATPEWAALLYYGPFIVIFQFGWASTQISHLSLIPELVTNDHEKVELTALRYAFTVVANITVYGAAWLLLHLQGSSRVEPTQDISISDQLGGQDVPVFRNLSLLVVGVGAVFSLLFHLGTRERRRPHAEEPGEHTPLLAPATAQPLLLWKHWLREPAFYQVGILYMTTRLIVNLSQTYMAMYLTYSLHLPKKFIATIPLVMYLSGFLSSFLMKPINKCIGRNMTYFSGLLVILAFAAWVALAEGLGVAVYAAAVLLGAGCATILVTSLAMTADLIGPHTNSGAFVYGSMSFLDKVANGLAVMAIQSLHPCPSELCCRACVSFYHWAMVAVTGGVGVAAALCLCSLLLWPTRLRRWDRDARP
# UniProt P21741: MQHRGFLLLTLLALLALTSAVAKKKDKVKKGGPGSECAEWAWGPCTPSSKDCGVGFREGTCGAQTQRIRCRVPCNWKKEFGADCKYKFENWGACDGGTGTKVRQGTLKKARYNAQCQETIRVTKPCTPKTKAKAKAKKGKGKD
# UniProt Q9H1U4: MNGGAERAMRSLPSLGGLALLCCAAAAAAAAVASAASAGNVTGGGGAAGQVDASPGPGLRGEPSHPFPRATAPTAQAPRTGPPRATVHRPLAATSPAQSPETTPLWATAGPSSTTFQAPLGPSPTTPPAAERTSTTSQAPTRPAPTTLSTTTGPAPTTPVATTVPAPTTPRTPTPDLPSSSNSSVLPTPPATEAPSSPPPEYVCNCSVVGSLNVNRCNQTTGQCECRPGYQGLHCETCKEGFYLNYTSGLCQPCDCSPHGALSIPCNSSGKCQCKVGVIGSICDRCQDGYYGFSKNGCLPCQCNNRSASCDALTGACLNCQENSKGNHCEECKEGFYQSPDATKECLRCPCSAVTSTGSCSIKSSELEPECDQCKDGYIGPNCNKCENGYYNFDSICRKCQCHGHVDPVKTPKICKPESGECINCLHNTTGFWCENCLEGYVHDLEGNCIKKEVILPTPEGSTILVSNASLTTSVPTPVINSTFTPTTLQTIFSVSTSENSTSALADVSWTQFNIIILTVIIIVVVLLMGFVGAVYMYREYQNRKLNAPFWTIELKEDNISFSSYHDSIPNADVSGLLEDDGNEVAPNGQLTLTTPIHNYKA
# UniProt P55082: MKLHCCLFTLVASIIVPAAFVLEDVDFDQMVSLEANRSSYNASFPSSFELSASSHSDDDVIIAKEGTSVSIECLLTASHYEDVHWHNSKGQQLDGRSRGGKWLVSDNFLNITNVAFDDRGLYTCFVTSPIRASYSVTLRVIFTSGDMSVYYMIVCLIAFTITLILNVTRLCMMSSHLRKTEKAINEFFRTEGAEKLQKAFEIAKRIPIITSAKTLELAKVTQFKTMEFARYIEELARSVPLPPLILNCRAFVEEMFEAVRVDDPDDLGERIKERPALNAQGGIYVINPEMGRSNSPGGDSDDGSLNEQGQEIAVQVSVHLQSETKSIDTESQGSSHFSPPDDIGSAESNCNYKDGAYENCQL
# UniProt Q14680: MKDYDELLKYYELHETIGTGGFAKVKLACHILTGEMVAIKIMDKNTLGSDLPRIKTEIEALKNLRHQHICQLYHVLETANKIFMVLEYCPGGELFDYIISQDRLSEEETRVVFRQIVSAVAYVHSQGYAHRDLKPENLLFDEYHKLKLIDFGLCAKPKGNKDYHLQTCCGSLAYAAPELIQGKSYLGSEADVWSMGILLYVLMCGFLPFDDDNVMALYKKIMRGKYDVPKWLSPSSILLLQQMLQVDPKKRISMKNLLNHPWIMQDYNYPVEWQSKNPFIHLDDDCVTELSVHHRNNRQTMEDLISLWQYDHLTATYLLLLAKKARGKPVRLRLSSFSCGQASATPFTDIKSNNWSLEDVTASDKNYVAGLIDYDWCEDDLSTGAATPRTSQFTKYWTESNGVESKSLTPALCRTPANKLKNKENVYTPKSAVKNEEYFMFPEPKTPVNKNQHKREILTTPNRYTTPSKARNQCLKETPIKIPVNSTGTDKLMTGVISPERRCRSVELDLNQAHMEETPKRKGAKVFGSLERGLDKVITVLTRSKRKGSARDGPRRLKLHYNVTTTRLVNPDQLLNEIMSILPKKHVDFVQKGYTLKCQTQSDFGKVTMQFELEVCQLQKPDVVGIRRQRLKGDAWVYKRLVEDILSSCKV
# UniProt A4D2B0: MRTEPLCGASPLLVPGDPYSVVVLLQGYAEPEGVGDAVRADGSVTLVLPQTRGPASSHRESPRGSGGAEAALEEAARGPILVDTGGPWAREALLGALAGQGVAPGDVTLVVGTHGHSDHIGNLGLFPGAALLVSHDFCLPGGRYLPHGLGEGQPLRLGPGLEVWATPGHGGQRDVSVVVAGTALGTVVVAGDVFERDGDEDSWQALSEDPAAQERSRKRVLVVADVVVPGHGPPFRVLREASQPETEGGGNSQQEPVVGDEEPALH
# UniProt O43462: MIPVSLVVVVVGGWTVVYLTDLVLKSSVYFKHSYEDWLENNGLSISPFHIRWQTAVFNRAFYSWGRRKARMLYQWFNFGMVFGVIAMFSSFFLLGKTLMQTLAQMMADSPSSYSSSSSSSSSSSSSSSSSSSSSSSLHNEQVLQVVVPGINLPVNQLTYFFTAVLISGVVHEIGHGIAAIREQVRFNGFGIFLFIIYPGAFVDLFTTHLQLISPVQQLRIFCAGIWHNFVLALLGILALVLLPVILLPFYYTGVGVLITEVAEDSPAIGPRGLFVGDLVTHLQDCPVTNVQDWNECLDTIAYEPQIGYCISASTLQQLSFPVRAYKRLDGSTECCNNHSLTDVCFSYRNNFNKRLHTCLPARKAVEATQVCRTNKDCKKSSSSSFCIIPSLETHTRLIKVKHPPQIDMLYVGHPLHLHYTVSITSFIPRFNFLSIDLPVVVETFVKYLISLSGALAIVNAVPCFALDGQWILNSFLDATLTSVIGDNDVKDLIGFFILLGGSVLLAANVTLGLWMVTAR
# UniProt Q13503: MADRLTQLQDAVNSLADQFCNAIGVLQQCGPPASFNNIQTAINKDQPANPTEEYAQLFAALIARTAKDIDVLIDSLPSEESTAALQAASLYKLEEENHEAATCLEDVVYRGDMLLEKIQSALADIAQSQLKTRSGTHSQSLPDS
# UniProt Q9Y3C7: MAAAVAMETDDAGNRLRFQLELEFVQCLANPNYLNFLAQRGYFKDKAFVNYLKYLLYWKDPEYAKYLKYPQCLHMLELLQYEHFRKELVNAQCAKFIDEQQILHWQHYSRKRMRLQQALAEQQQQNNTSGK
# UniProt Q9NWA0: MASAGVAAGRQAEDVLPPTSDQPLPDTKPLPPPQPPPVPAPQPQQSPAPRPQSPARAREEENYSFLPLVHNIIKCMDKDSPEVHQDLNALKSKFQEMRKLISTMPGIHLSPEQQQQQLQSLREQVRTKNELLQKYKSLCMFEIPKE
# UniProt Q9NS73: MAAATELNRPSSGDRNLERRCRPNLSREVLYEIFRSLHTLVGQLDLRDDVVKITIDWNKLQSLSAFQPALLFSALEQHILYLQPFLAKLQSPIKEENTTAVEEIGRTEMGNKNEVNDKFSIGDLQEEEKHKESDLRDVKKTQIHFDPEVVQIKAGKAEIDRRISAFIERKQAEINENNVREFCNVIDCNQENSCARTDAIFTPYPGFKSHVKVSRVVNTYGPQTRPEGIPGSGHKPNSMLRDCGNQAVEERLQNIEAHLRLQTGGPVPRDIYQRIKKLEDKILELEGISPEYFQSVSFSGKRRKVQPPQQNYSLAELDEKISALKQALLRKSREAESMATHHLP
# UniProt Q8TDD5: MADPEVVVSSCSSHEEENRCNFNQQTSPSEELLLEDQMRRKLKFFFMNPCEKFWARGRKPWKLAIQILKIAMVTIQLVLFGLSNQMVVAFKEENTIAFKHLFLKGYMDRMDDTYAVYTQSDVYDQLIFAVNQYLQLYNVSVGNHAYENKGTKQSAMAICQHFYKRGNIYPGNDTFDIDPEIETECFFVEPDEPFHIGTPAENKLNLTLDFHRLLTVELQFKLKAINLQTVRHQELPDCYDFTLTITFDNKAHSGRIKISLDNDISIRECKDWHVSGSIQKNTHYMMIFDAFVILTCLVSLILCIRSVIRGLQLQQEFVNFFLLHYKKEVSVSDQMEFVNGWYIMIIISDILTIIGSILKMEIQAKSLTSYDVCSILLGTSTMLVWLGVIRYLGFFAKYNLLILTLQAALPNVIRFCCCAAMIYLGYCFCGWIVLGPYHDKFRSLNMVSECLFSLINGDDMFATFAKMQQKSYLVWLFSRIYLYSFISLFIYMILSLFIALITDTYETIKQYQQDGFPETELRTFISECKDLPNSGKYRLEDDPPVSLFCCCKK
# The other results are listed elsewhere or left out.
# Compound: CC1=C(C=C(C=C1)NC(=O)C2=CC(=CC=C2)C(C)(C)C#N)NC3=CC4=C(C=C3)N=CN(C4=O)C
# Assay: log2 fold change, soluble protein after heating vs DMSO (PISA); higher = thermal stabilisation; K562 cells, 10 uM, 30 min; active = over 0.2 and 3.5 SD of the protein, either way, in both replicates (recomputed)
# In short: (§1)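 Soluble protein was defined as the supernatant after 21,000xg for 90 min. It came from K562 cells at 2×10^6 cells/mL given 10 μM compound for 30 min, heated in aliquots for 3 min across 48°C-58°C, pooled, and extracted in PBS with 0.5% NP-40 at 4°C, and was quantified by TMTpro 16plex LC-MS/MS with equalised channel sums. Thermal stability against control samples, from duplicates, is reported as log2 fold change.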
row,Target,log2 fold change
1,MFSD6 (UniProt Q6ZSS7),inactive: -0.036
2,MED27 (UniProt Q6P2C8),inactive: -0.003
3,METTL6 (UniProt Q8TCB7),inactive: 0.037
4,MFSD11 (UniProt O43934),inactive: -0.171
5,MED6 (UniProt O75586),inactive: -0.279
6,MFSD12 isoform 3 (UniProt Q6NUT3),inactive: 0.115
7,MEF2A (UniProt Q02078),inactive: -0.34
8,MDK (UniProt P21741),inactive: 0.166
9,MEGF9 (UniProt Q9H1U4),inactive: -0.083
10,MFAP3 (UniProt P55082),inactive: 0.038
11,MELK (UniProt Q14680),inactive: -0.026

# Not a retest: entries from further up.
row,Target,log2 fold change
6,MFSD12 isoform 3 (UniProt Q6NUT3),inactive: 0.115
7,MEF2A (UniProt Q02078),inactive: -0.34
8,MDK (UniProt P21741),inactive: 0.166
9,MEGF9 (UniProt Q9H1U4),inactive: -0.083

# Compound: CC1=C(C=C(C=C1)NC(=O)C2=CC(=CC=C2)N(C)C)NC(=O)C3=CC=C(C=C3)O
# Assay: as above
# In short: as §1
row,Target,log2 fold change
1,MEX3B (UniProt Q6ZN04),inactive: -0.075
2,MBLAC1 (UniProt A4D2B0),inactive: 0.079
3,MBTPS2 (UniProt O43462),inactive: -0.002
4,MEX3C (UniProt Q5U5Q3),inactive: 0.009
5,MED21 (UniProt Q13503),inactive: 0.021
6,MGRN1 isoform 2 (UniProt O60291),inactive: -0.059
7,MFHAS1 (UniProt Q9Y4C4),inactive: 0.092
8,METTL9 (UniProt Q9H1A3),inactive: 0.016
9,MED31 (UniProt Q9Y3C7),inactive: -0.021
10,MED9 (UniProt Q9NWA0),inactive: -0.078
11,MBIP (UniProt Q9NS73),inactive: -0.04
12,MCOLN3 (UniProt Q8TDD5),inactive: 0.013
